Reference: PubChem BioAssay AID602196 (INSERM, 2012)

Purpose: 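Knock-downs that protect lung cancer cells from cisplatin or sensitise them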
Cell system: human A549 lung cancer cells
Reagents: siRNA pair against human genes
Duration: 48 h transfection before cisplatin; time from cisplatin to read-out not stated
Conditions: cisplatin at a dose killing half of control-siRNA cells; exact dose and duration not given
Detection: 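Shift in cisplatin death relative to control siRNA, from -50 (all cells die) to +50 (no cells die); siRNAs harmful on their own scored 0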
Direction: two-siRNA summed score (-2 to +2): higher = both siRNAs protect from cisplatin killing; -2 means both sensitise; mean protection from cisplatin (shift in death) and protection from cisplatin (shift in death), siRNA C and protection from cisplatin (shift in death), siRNA D: higher = protection from cisplatin killing
Active means: 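siRNAs harmful alone (LDH or WST-1) get 0; others get +1 for less and -1 for more cisplatin killing; genes are active when the two siRNAs give the same sign, summing to ±2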
Meaning of the calls: active = both siRNAs shift cisplatin killing the same way; inactive = no consistent shift, or siRNA harmful alone
Shown is an unselected part of about 23,000 reagents tested. Of all reagents, 455 (2%) were called active. 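Active includes both protection and sensitisation; some change values fall well beyond the stated -50 to +50 range.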 Not given: the amount of reagent.

target gene,PubChem SID,two-siRNA summed score (-2 to +2),mean protection from cisplatin (shift in death) (%),"protection from cisplatin (shift in death), siRNA C (%)","protection from cisplatin (shift in death), siRNA D (%)",outcome
LINC01501 (long independently transcribed non-coding RNA 1501),SID131518093,0,16.5,13.7,19.3,inactive
GALE (UDP-galactose-4-epimerase),SID131505789,0,-2.6,11.6,-16.7,inactive
DNM2 (dynamin 2),SID131521911,1,15.4,28.3,2.5,inactive
LOXL2 (lysyl oxidase like 2),SID131506115,0,-2,-0.9,-3.1,inactive
ROMO1 (reactive oxygen species modulator 1),SID131504532,0,-5.1,-6.6,-3.7,inactive
VWA8 (von Willebrand factor A domain containing 8),SID131510529,0,3.3,-1.8,8.5,inactive
TFIP11 (tuftelin interacting protein 11),SID131515134,0,8.7,0.7,16.7,inactive
FGF5 (fibroblast growth factor 5),SID131514590,0,8,4.8,11.1,inactive
BMAL2 (basic helix-loop-helix ARNT like 2),SID131511885,0,4.9,18.4,-8.6,inactive
LOC389232,SID131509205,0,1.9,-4.3,8.2,inactive
ZNF365 (zinc finger protein 365),SID131515022,0,8.6,2.1,15.1,inactive
LOC137886,SID131519413,1,5.4,16.6,-5.7,inactive
KRTAP1-5 (keratin associated protein 1-5),SID131510166,0,3,7.1,-1.2,inactive
SEC62 (SEC62 preprotein translocation factor),SID131522287,1,17.5,20.7,14.3,inactive
CD38 (CD38 molecule),SID131500400,-2,-14.3,-13.3,-15.3,active
ERI1 (exoribonuclease 1),SID131511640,0,4.6,1.4,7.7,inactive
HEXA (hexosaminidase subunit alpha),SID131503022,0,-15.9,-32.7,1,inactive
ACD,SID131514827,0,8.3,11.7,5,inactive
AHDC1 (AT-hook DNA binding motif containing 1),SID131517858,0,15.1,17.2,13.1,inactive
MTCL2 (microtubule crosslinking factor 2),SID131508052,0,0.6,1.7,-0.6,inactive
MTCL2 (microtubule crosslinking factor 2),SID131509687,0,2.4,-2.2,7,inactive
ADGRV1 (adhesion G protein-coupled receptor V1),SID131511078,0,4,-4.1,12,inactive
LOC441465,SID131511475,0,4.4,0.3,8.4,inactive
UNC5A (unc-5 netrin receptor A),SID131505674,0,-2.8,-5.4,-0.1,inactive
LOC388416,SID131518486,0,20.4,2.8,37.9,inactive
LOC400924,SID131509188,0,1.9,7.5,-3.7,inactive
TXN2 (thioredoxin 2),SID131502157,-1,-4.9,-13.7,3.9,inactive
PGLS (6-phosphogluconolactonase),SID131504865,0,-4.3,-7.9,-0.7,inactive
MAGEB3 (MAGE family member B3),SID131512691,0,5.8,5.8,5.7,inactive
"NRDE2 (NRDE-2, necessary for RNA interference, domain containing)",SID131505947,0,-2.3,3.4,-8,inactive

Entries above with an active call, once more:
target gene,PubChem SID,two-siRNA summed score (-2 to +2),mean protection from cisplatin (shift in death) (%),"protection from cisplatin (shift in death), siRNA C (%)","protection from cisplatin (shift in death), siRNA D (%)",outcome
CD38 (CD38 molecule),SID131500400,-2,-14.3,-13.3,-15.3,active

Continued:
target gene,PubChem SID,two-siRNA summed score (-2 to +2),mean protection from cisplatin (shift in death) (%),"protection from cisplatin (shift in death), siRNA C (%)","protection from cisplatin (shift in death), siRNA D (%)",outcome
PLAAT4 (phospholipase A and acyltransferase 4),SID131514648,0,8.1,2.8,13.3,inactive
ADIG (adipogenin),SID131513680,0,6.9,1.3,12.4,inactive
KLRC1 (killer cell lectin like receptor C1),SID131512341,0,5.4,9.5,1.2,inactive
LOC390816,SID131507914,0,0.4,1.6,-0.8,inactive
"AKR1C6P (aldo-keto reductase family 1 member C6, pseudogene)",SID131517358,0,13.1,7.8,18.5,inactive
MSH5 (mutS homolog 5),SID131500828,-1,-15.5,-23.8,-7.3,inactive
ZNF665 (zinc finger protein 665),SID131512975,0,6.1,10.6,1.6,inactive
OR5K2 (olfactory receptor family 5 subfamily K member 2),SID131522027,1,15.9,17.4,14.4,inactive
LOC126772,SID131504274,0,-5.9,1.3,-13.1,inactive
PPP2R1B (protein phosphatase 2 scaffold subunit Abeta),SID131500583,-1,-20.6,-9.5,-31.7,inactive
C14orf93 (chromosome 14 open reading frame 93),SID131510406,0,3.2,13.9,-7.4,inactive
KDR (kinase insert domain receptor),SID131513889,0,7.1,15,-0.8,inactive
ZC3H11D (zinc finger CCCH-type containing 11D),SID131516214,0,10.5,6.4,14.6,inactive
"ZFPM1 (zinc finger protein, FOG family member 1)",SID131518709,0,24.8,13.5,36.1,inactive
RPLP2 (ribosomal protein lateral stalk subunit P2),SID131518316,0,18.3,13.5,23.1,inactive
MAT2B (methionine adenosyltransferase 2 non-catalytic beta subunit),SID131514059,0,7.3,1.8,12.9,inactive
DQX1 (DEAQ-box RNA dependent ATPase 1),SID131516256,0,10.5,14.4,6.7,inactive
ITFG2-AS1 (ITFG2 antisense RNA 1),SID131510640,0,3.5,-17.4,24.3,inactive
PM20D2 (peptidase M20 domain containing 2),SID131519240,1,4.1,17,-8.8,inactive
SNHG29 (small nucleolar RNA host gene 29),SID131514697,0,8.1,10.5,5.7,inactive
LYAR (Ly1 antibody reactive),SID131501772,-1,-7.4,-18.1,3.2,inactive
SULT2B1 (sulfotransferase family 2B member 1),SID131512622,0,5.7,15.3,-3.9,inactive
FFAR2 (free fatty acid receptor 2),SID131500341,-2,-21,-24.8,-17.2,active
DEDD2 (death effector domain containing 2),SID131511961,0,5,17.6,-7.6,inactive
PPP1R9A (protein phosphatase 1 regulatory subunit 9A),SID131505199,0,-3.6,4.4,-11.6,inactive
PARP14 (poly(ADP-ribose) polymerase family member 14),SID131503685,0,-8.5,-5.5,-11.5,inactive
PKP4 (plakophilin 4),SID131512231,0,5.2,16.9,-6.4,inactive
PODXL2 (podocalyxin like 2),SID131509236,0,1.9,2.6,1.3,inactive
CT55 (cancer/testis antigen 55),SID131511197,0,4.1,3.1,5.1,inactive
SLC38A5,SID131505133,0,-3.7,5.9,-13.3,inactive
ATP5F1D (ATP synthase F1 subunit delta),SID131522283,1,17.4,24.9,10,inactive
ZKSCAN5 (zinc finger with KRAB and SCAN domains 5),SID131521223,1,12.7,0.8,24.6,inactive
BEND6 (BEN domain containing 6),SID131512324,0,5.3,-5.2,15.9,inactive
NEUROG3 (neurogenin 3),SID131508104,0,0.6,-4.1,5.4,inactive
LOC347512,SID131520320,1,9.5,18.1,0.8,inactive
LOC390566,SID131509444,0,2.2,4.4,-0.1,inactive
LOC441149,SID131510509,0,3.3,8.2,-1.5,inactive
PROCA1 (protein interacting with cyclin A1),SID131508374,0,1,3.8,-1.8,inactive
LOC440078,SID131522541,1,19.8,20.6,19,inactive
"METTL4 (methyltransferase 4, N6-adenosine)",SID131506093,0,-2,0.2,-4.3,inactive
FGFR1 (fibroblast growth factor receptor 1),SID131505005,0,-4,-6.5,-1.5,inactive
FLG (filaggrin),SID131514035,0,7.3,14.2,0.4,inactive
KCNK1 (potassium two pore domain channel subfamily K member 1),SID131504464,0,-5.3,-13.9,3.3,inactive
